Experimental data from PubChem BioAssay AID212 (DTP/NCI, 2004).
The list is a part of this screen's results and no random one: it is rich in T/C values a quarter to a half above the control, in often repeated tests (any T/C) and in doses without a T/C. Further doses and runs are listed elsewhere. T/C gives the treated animals as a percentage of the vehicle group. Schedules are NCI's codes, read here as Q, the interval in days (D) or hours (H), X, the number of doses. Some entries hold several experiments; their values stand side by side, smallest first. Some T/C values are followed by the survivors on the day toxicity was checked, most often the fifth; where none is given, no animal had died by that day. Some entries give survivors of the animals treated and no T/C: the source holds a T/C of zero for them, seemingly a mark for toxic or unscored doses. Counts of survivors are from the toxicity check (mostly the fifth day) where no day follows; animals may have died later.

System: BDF1 mice, colon carcinoma 38 sc, T/C %
Test: NCI In Vivo Anticancer Drug Screen. Data for tumor model Colon Carcinoma 38 (subcutaneous) in B6D2F1 (BDF1) mice
Details: T/C endpoint: median tumor weight (est.), higher T/C = larger tumour; for T/C: evaluated on day 20
Summary of the method: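 Transplantable tumor in mice; compound-treated vs vehicle-dosed controls. Measured survival or tumor size; value = T ÷ C.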

[1] = dose: 200.0 mg/kg/injection, schedule: Q07DX002 (ip), vehicle: saline with Tween-80
[2] = dose: 400.0 mg/kg/injection, schedule: Q07DX002 (ip), vehicle: saline with Tween-80
[3] = dose: 400.0 mg/kg/injection, schedule: Q07DX002 (ip), vehicle: Klucel (hydroxypropylcellulose) (HPC)
[4] = dose: 50.0 mg/kg/injection, schedule: Q07DX002 (ip), vehicle: Klucel (hydroxypropylcellulose) (HPC)
[5] = dose: 100.0 mg/kg/injection, schedule: Q07DX002 (ip), vehicle: saline with Tween-80
[6] = dose: 50.0 mg/kg/injection, schedule: Q07DX002 (ip), vehicle: saline with Tween-80

SMILES: CC1(C)CC(=O)C(CSC(=O)c2ccccc2)C(=O)C1
- T/C (dose: 6.25 mg/kg/injection, schedule: Q07DX002 (ip), vehicle: Klucel (hydroxypropylcellulose) (HPC)): 127 [9 of 10 alive on day 20] and 143 % of control
- T/C (dose: 100.0 mg/kg/injection, schedule: Q07DX002 (ip), vehicle: Klucel (hydroxypropylcellulose) (HPC)): 136 % of control [9 of 10 alive on day 20]
- survivor count (dose: 200.0 mg/kg/injection, schedule: Q07DX002 (ip), vehicle: Klucel (hydroxypropylcellulose) (HPC)): 0 of 10 on day 20 and 5 of 10 on day 20

SMILES: O=C(Nc1ccccc1)c1c(O)[nH]c(=S)[nH]c1=O
- survivor count (dose: 112.0 mg/kg/injection, schedule: Q07DX002 (ip), vehicle: saline with Tween-80): 6 of 10 on day 20
- survivor count (dose: 225.0 mg/kg/injection, schedule: Q07DX002 (ip), vehicle: saline with Tween-80): 4 of 10 on day 20
- survivor count (dose: 450.0 mg/kg/injection, schedule: Q07DX002 (ip), vehicle: saline with Tween-80): 0 of 10 on day 20 and 1 of 10 on day 20
- survivor count (dose: 900.0 mg/kg/injection, schedule: Q07DX002 (ip), vehicle: saline with Tween-80): 0 of 10 on day 20

SMILES: CCC1OC(OC)C=CC1=O (configuration not stated)
- survivor count [1]: 0 of 10 on day 20
- survivor count [2]: 0 of 10 on day 20

SMILES: COc1cc(C(=O)c2cc3c(cc2C)OCO3)cc(OC)c1OC
- T/C (dose: 12.5 mg/kg/injection, schedule: Q07DX002 (ip), vehicle: Klucel (hydroxypropylcellulose) (HPC)): 132 % of control
- survivor count [3]: 1 of 10 on day 20

SMILES: C[C@H]1C/C=C/[C@H]2[C@@H]3O[C@]3(C)[C@@H](C)[C@H]3[C@H](Cc4ccccc4)NC(=O)[C@]32OC(=O)O/C=C/[C@@](C)(O)C1=O
- survivor count (dose: 25.0 mg/kg/injection, schedule: Q07DX002 (ip), vehicle: Klucel (hydroxypropylcellulose) (HPC)): 5 of 10 on day 20
- survivor count [4]: 1 of 10 on day 20

SMILES: O=C(O)CC(NC(=O)CP(=O)(O)O)C(=O)O (configuration not stated)
- T/C (dose: 25.0 mg/kg/injection, schedule: Q07DX003 (ip), vehicle: saline): 131 % of control
- T/C (dose: 100.0 mg/kg/injection, schedule: Q07DX003 (ip), vehicle: saline): 134 % of control
- survivor count (dose: 265.0 mg/kg/injection, schedule: Q01DX009 (ip), vehicle: saline): 5 of 10
- survivor count (dose: 833.0 mg/kg/injection, schedule: Q04DX004 (ip), vehicle: saline): 0 of 4

SMILES: COc1ccc(S(=O)(=O)N/N=C/C(=O)O)cc1
- survivor count [2]: 3 of 10 on day 20

SMILES: CC(=O)Nc1ccc(Nc2ccc(C(=C3C=CC(=[N+](C)CCC#N)C=C3)c3ccc(N(C)CCC#N)cc3)cc2)cc1
- survivor count [5]: 4 of 10 on day 20
- survivor count [1]: 0 of 10 on day 20
- survivor count [2]: 0 of 10 on day 20
- survivor count (dose: 800.0 mg/kg/injection, schedule: Q07DX002 (ip), vehicle: saline with Tween-80): 0 of 10 on day 20

SMILES: C=C(C)C(=NC(C)(C)C)Nc1ccccc1
- T/C [5]: 136 % of control [9 of 10 alive on day 20]

SMILES: Clc1cc(Cl)c(C[N+]23CN4CN(CN(C4)C2)C3)cc1Cl
- survivor count (dose: 25.0 mg/kg/injection, schedule: Q07DX002 (ip), vehicle: saline with Tween-80): 4 of 10 on day 20
- T/C [6]: 127 % of control
- survivor count [6]: 5 of 10 on day 20
- survivor count [2]: 0 of 10 on day 20

SMILES: c1ccc2c(NCCCCCCNc3c4ccccc4nc4ccccc34)c3ccccc3nc2c1
- T/C (dose: 5.0 mg/kg/injection, schedule: Q07DX002 (ip), vehicle: Klucel (hydroxypropylcellulose) (HPC)): 126 % of control
- T/C (dose: 40.0 mg/kg/injection, schedule: Q07DX002 (ip), vehicle: Klucel (hydroxypropylcellulose) (HPC)): 136 % of control [9 of 10 alive]

SMILES: CCC(c1ccc(OC(=O)Cc2ccc(N(CCCl)CCCl)cc2)cc1)C(CC)c1ccc(OC(=O)Cc2ccc(N(CCCl)CCCl)cc2)cc1 (configuration not stated)
- T/C (dose: 37.5 mg/kg/injection, schedule: Q07DX002 (ip), vehicle: saline with Tween-80): 143 % of control
- T/C (dose: 75.0 mg/kg/injection, schedule: Q07DX002 (ip), vehicle: saline with Tween-80): 126 and 133 % of control

SMILES: N=[N+]=CC(=O)CCC(NC(=O)C(CCC(=O)C=[N+]=N)NC(=O)CCC(N)C(=O)O)C(=O)O (configuration not stated)
- survivor count (dose: 100.0 mg/kg/injection, schedule: Q07DX003 (ip), vehicle: clinical formulation): 6 of 10
- survivor count (dose: 100.0 mg/kg/injection, schedule: Q07DX003 (ip), vehicle: water): 1 of 10

SMILES: C=C1C(=O)OC2/C=C(\CO)C(OC(C)=O)CC(O)/C(C)=C/C(OC(=O)C(C)CC)C12 (configuration not stated)
- T/C [4]: 137 % of control [9 of 10 alive on day 20]

SMILES: CC(C)NC(=O)N(CCCCBr)N=O
- survivor count [3]: 1 of 10 on day 20

SMILES: CN1N=C(N)c2cn(C3OC(COP(=O)(O)O)C(O)C3O)c3ncnc1c23 (configuration not stated)
- survivor count (dose: 100.0 mg/kg/injection, schedule: Q07DX002 (ip), vehicle: water): 4 of 10 on day 20
- survivor count (dose: 200.0 mg/kg/injection, schedule: Q07DX002 (ip), vehicle: water): 0 of 10 on day 20 and 4 of 10 on day 20

SMILES: CN(C)CCC(=O)C(=Cc1ccc(O)cc1)C(=O)CCN(C)C
- T/C (dose: 200.0 mg/kg/injection, schedule: Q07DX002 (ip), vehicle: saline): 135 % of control
- survivor count (dose: 400.0 mg/kg/injection, schedule: Q07DX002 (ip), vehicle: saline): 2 of 10 on day 20

SMILES: CCCCCCCCCCCCCCC/C([O-])=N/[N+](C)(C)CC(C)O (configuration not stated)
- T/C (dose: 50.0 mg/kg/injection, schedule: Q01DX001 (ip), vehicle: saline): 140 % of control [8 of 10 alive on day 20]
- T/C (dose: 100.0 mg/kg/injection, schedule: Q01DX001 (ip), vehicle: saline): 148 % of control [8 of 10 alive on day 20]
- survivor count (dose: 800.0 mg/kg/injection, schedule: Q01DX001 (ip), vehicle: saline): 3 of 10 on day 20

SMILES: NC(N)=NC(N)=Nc1ccc(-c2ccc(N=C(N)N=C(N)N)cc2)cc1
- survivor count [5]: 0 of 10 on day 20

SMILES: Cc1c2c(ccc3ccccc32)c[n+]2ccccc12
- T/C (dose: 3.12 mg/kg/injection, schedule: Q07DX002 (ip), vehicle: suspension in saline): 126 % of control
- T/C (dose: 6.25 mg/kg/injection, schedule: Q07DX002 (ip), vehicle: suspension in saline): 138 % of control
- T/C (dose: 12.5 mg/kg/injection, schedule: Q07DX002 (ip), vehicle: saline): 136 % of control
- survivor count (dose: 50.0 mg/kg/injection, schedule: Q07DX002 (ip), vehicle: saline): 0 of 10 on day 20
- survivor count (dose: 50.0 mg/kg/injection, schedule: Q07DX002 (ip), vehicle: suspension in saline): 0 of 10 on day 20
- survivor count (dose: 100.0 mg/kg/injection, schedule: Q07DX002 (ip), vehicle: saline): 0 of 10 on day 20
- survivor count (dose: 100.0 mg/kg/injection, schedule: Q07DX002 (ip), vehicle: suspension in saline): 0 of 10 on day 20

SMILES: CC[PH+](CC)CC[S-].CC[PH+](CC)CC[S-].[Au+].[Au+]
- survivor count (dose: 80.0 mg/kg/injection, schedule: Q07DX002 (ip), vehicle: Klucel (hydroxypropylcellulose) (HPC)): 5 of 10 on day 20
- survivor count (dose: 160.0 mg/kg/injection, schedule: Q07DX002 (ip), vehicle: Klucel (hydroxypropylcellulose) (HPC)): 0 of 10 on day 20
